Results: PubChem BioAssay (NCATS)
The list shows a part of the results. The main result of the screen is listed elsewhere. These columns were measured beside it and carry no call. Most of these compounds were active or inconclusive in the main read-out, so they are no random draw. Words in brackets tell the shape of the fitted curve; partial curves, single points and poor fits give uncertain potencies.

Test: qHTS for identification of novel therapeutic agents for treatment of microphthalmiaassociated transcription factor (MiT) renal cell carcinoma (RCC) (AID 1963991)
Details: CellTiter-Glo, 48 h; for z-score: stronger effect = lower value
Outline: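 Three TFE3-fusion RCC cell lines (UOK109, UOK124, UOK145), 500 cells/well, were exposed to the 1912-compound MIPE 4.0 library for 48 hours at 37 C. Viability was read by CellTiter-Glo luminescence, normalised to DMSO (100%) and empty wells (0%), with 11-concentration curve fits.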

[1] = TFE3-RCC UOK109 viability, measured here: UOK109 Z-AUC
[2] = TFE3-RCC viability, measured here: UOK124 Z-AUC
[3] = TFE3-RCC viability, measured here: UOK124 cell viability
[4] = TFE3-RCC viability, measured here: UOK145 Z-AUC
[5] = TFE3-RCC viability, measured here: UOK145 cell viability

Compound: COc1cc2ncnc(Nc3ccc(F)c(Cl)c3)c2cc1NC(=O)C=CCN1CCCCC1
- z-score [1]: -2.93
- z-score [2]: -0.526
- AC50 [3]: 14.8 µM [falling, partial curve]
- z-score [4]: -0.185
- AC50 [5]: 14.8 µM [falling, partial curve]

Compound: O=C(c1ccc(C=Cc2n[nH]c3ccccc23)cc1)N1CCNCC1
- z-score [1]: 0.493
- z-score [2]: 0.351
- AC50 [3]: 20.9 µM [falling, partial curve]
- z-score [4]: -0.163
- AC50 [5]: 18.7 µM [falling, partial curve]

Compound: CN1CCC[C@H]1CCO[C@](C)(c1ccccc1)c1ccc(Cl)cc1
- z-score [1]: 0.261
- z-score [2]: 0.411
- AC50 [3]: 37.2 µM [falling, single point]
- z-score [4]: 0.0171
- AC50 [5]: 37.2 µM [falling, partial curve, poor fit]

Compound: CNC(=O)c1cc(COc2nnc(Nc3ccc(Cl)cc3)c3ccoc23)ccn1
- z-score [1]: 0.26
- z-score [2]: -0.0462
- AC50 [3]: 33.2 µM [falling, single point]
- z-score [4]: 0.647
- AC50 [5]: 29.6 µM [falling, single point]

Compound: CCNC(=O)Nc1ccc(-c2nc3c(c(N4CCOC[C@H]4C)n2)CCN(C2COC2)C3)cc1
- z-score [1]: -0.258
- z-score [2]: -0.444
- AC50 [3]: 2.64 µM [falling, full curve]
- z-score [4]: -0.293
- AC50 [5]: 2.96 µM [falling, full curve]

Compound: CC=C(C)C(=O)O[C@H]1C(C)=C[C@]23C(=O)[C@@H](C=C(CO)[C@@H](O)[C@]12O)[C@H]1[C@@H](C[C@H]3C)C1(C)C
- z-score [1]: 0.699
- z-score [2]: -1.46
- AC50 [3]: 0.0296 µM [falling, full curve]
- z-score [4]: -1.56
- AC50 [5]: 0.0662 µM [falling, full curve]

Compound: CS(=O)(=O)CCNCc1ccc(-c2ccc3ncnc(Nc4ccc(OCc5cccc(F)c5)c(Cl)c4)c3c2)o1
- z-score [1]: -2
- z-score [2]: -0.327
- AC50 [3]: 20.9 µM [falling, partial curve]
- z-score [4]: -0.965
- AC50 [5]: 14.8 µM [falling, partial curve]

Compound: CCOC(=O)N1CCN([N+]([O-])=NOc2ccc([N+](=O)[O-])cc2C#N)CC1
- z-score [1]: -0.786
- z-score [2]: -0.331
- AC50 [3]: 2.35 µM [falling, full curve]
- z-score [4]: 1.61
- AC50 [5]: 2.09 µM [falling, full curve]

Compound: COCC(=O)NCC=Cc1ccc2ncnc(Nc3ccc(Oc4ccc(C)nc4)c(C)c3)c2c1
- z-score [1]: -0.122
- z-score [2]: -0.345
- AC50 [3]: 4.18 µM [falling, partial curve]
- z-score [4]: 0.484
- AC50 [5]: 26.4 µM [falling, single point]

Compound: C1=CCOCc2cc(ccc2OCCN2CCCC2)Nc2nccc(n2)-c2cccc(c2)OCC1
- z-score [1]: -0.799
- z-score [2]: -0.718
- AC50 [3]: 5.26 µM [falling, full curve]
- z-score [4]: -1.3
- AC50 [5]: 6.62 µM [falling, partial curve]

Compound: CC(C)c1ccccc1Cc1cc(C(=O)Nc2ccc(S(=O)(=O)c3ccccc3C(C)(C)C)cc2)c(O)c(O)c1O
- z-score [1]: 0.0865
- z-score [2]: 0.00636
- AC50 [3]: 5.26 µM [falling, full curve]
- z-score [4]: -0.434
- AC50 [5]: 9.35 µM [falling, full curve]

Compound: NC(=O)c1nnn(Cc2cc(Cl)c(C(=O)c3ccc(Cl)cc3)c(Cl)c2)c1N
- z-score [1]: 0.669
- z-score [2]: 0.588
- AC50 [3]: 20.9 µM [falling, partial curve]
- z-score [4]: 0.514
- AC50 [5]: 29.6 µM [falling, single point]

Compound: O=c1[nH]c(-c2ccc(C(F)(F)F)cc2)nc2c1CSCC2
- z-score [1]: 0.531
- z-score [2]: 0.385
- AC50 [3]: 1.66 µM [falling, partial curve, poor fit]
- z-score [4]: 0.524
- AC50 [5]: 3.32 µM [falling, partial curve, poor fit]

Compound: C=C1C(=CC=C2CCCC3(C)[C@@H]([C@H](C)C=CC=CC(O)(CC)CC)CC[C@@H]23)C[C@@H](O)C[C@@H]1O (stereo not given in full)
- z-score [1]: -1.3
- z-score [2]: -0.156
- AC50 [3]: 23.5 µM [falling, single point]
- z-score [4]: 0.257
- AC50 [5]: 20.9 µM [falling, partial curve]

Compound: O=C(C=Cc1ccc(O)cc1)c1ccc(O)cc1O
- z-score [1]: 0.0113
- z-score [2]: 0.519
- AC50 [3]: 23.5 µM [falling, single point]
- z-score [4]: -0.145
- AC50 [5]: 20.9 µM [falling, partial curve]

Compound: Cc1ccc(S(=O)(=O)Nc2nc3ccccc3nc2Nc2ccc3nsnc3c2)cc1
- z-score [1]: -0.572
- z-score [2]: -0.64
- AC50 [3]: 0.229 µM [falling, full curve]
- z-score [4]: -0.369
- AC50 [5]: 1.02 µM [falling, full curve]

Compound: Cc1nc(NC(=O)N2CCC[C@@H]2C(N)=O)sc1-c1ccnc(C(C)(C)C(F)(F)F)c1
- z-score [1]: -0.503
- z-score [2]: -2.54
- AC50 [3]: 20.9 µM [falling, partial curve]
- z-score [4]: -0.864
- AC50 [5]: 11.8 µM [falling, partial curve]

Compound: CN(C)c1ccc2cc(C(=O)N[C@@H](CCCN=C(N)CCl)C(=O)NCc3ccccc3)ccc2c1
- z-score [1]: 0.245
- z-score [2]: -0.163
- AC50 [3]: 23.5 µM [falling, partial curve]
- z-score [4]: 0.00223
- AC50 [5]: 16.6 µM [falling, partial curve]

Compound: Cc1nc(NC(=O)N2CCC[C@@H]2C(N)=O)sc1-c1csc(C(C)(C)C)n1
- z-score [1]: -1.86
- z-score [2]: -0.284
- AC50 [3]: 3.72 µM [falling, full curve, poor fit]
- z-score [4]: 0.132
- AC50 [5]: 5.9 µM [falling, partial curve]

Compound: CC=C(C(=CC)c1ccc(O)cc1)c1ccc(O)cc1
- z-score [1]: 0.761
- z-score [2]: 0.158
- AC50 [3]: 18.7 µM [falling, single point]
- z-score [4]: -0.294
- AC50 [5]: 23.5 µM [falling, single point]

Compound: COc1c(Cl)cc2c([nH]c3cnccc32)c1NC(=O)c1cccnc1C
- z-score [1]: -0.177
- z-score [2]: -0.0359
- AC50 [3]: 23.5 µM [falling, partial curve]
- z-score [4]: 0.53
- AC50 [5]: 3.32 µM [falling, full curve]

Compound: COC(=O)c1ccc2c(C(=Nc3ccc(N(C)C(=O)CN4CCN(C)CC4)cc3)c3ccccc3)c(O)[nH]c2c1
- z-score [1]: -0.092
- z-score [2]: 0.491
- AC50 [3]: 1.32 µM [falling, partial curve, poor fit]
- z-score [4]: 0.414
- AC50 [5]: 37.2 µM [falling, single point]

Compound: CC[C@H](C)n1cc(C)c2c(C(=O)NCc3c(C)cc(C)[nH]c3=O)cc(-c3ccc(N4CCNCC4)nc3)cc21
- z-score [1]: 0.646
- z-score [2]: 0.231
- AC50 [3]: 33.2 µM [falling, single point]
- z-score [4]: 0.11
- AC50 [5]: 23.5 µM [falling, partial curve]

Compound: C[C@]12CC[C@@H]3c4ccc(O)cc4CC[C@H]3[C@H]1CC[C@H]2O
- z-score [1]: 0.138
- z-score [2]: 0.398
- AC50 [3]: 23.5 µM [falling, single point]
- z-score [4]: 0.188
- AC50 [5]: 26.4 µM [falling, single point]

Compound: C=CC[C@@H]1C=C(C)C[C@H](C)C[C@H](OC)[C@H]2O[C@@](O)(C(=O)C(=O)N3CCCC[C@H]3C(=O)O[C@H](C(C)=C[C@@H]3CC[C@H](O)[C@H](OC)C3)[C@@H](C)[C@@H](O)CC1=O)[C@@H](C)C[C@@H]2OC
- z-score [1]: 0.269
- z-score [2]: 0.267
- AC50 [3]: 2.35 µM [falling, full curve]
- z-score [4]: -0.242
- AC50 [5]: 5.9 µM [falling, partial curve]

Compound: CCOC(=O)[C@H](CCc1ccccc1)N[C@@H](C)C(=O)N1[C@@H](C(=O)O)C[C@H]2CCC[C@@H]21
- z-score [1]: 0.289
- z-score [2]: -0.625
- AC50 [3]: 6.62 µM [falling, full curve]
- z-score [4]: 0.202
- AC50 [5]: 26.4 µM [falling, partial curve]

Compound: CS(=O)(=O)Oc1ccc2c(NC(N)=O)c(C(=O)c3ccc(Cl)cc3Cl)oc2c1
- z-score [1]: -0.644
- z-score [2]: -0.0468
- AC50 [3]: 2.35 µM [falling, full curve]
- z-score [4]: 0.131
- AC50 [5]: 16.6 µM [falling, partial curve]

Compound: Cn1cnc(=N)c2[nH]cnc21
- z-score [1]: -0.191
- z-score [2]: 0.336
- AC50 [3]: 2.96 µM [falling, full curve]
- z-score [4]: -0.48
- AC50 [5]: 5.9 µM [falling, partial curve]

Compound: NCc1c[nH]c(=S)n1[C@H]1CCc2c(F)cc(F)cc2C1
- z-score [1]: 0.598
- z-score [2]: 0.386
- AC50 [3]: 23.5 µM [falling, single point]
- z-score [4]: 0.643
- AC50 [5]: 23.5 µM [falling, partial curve, poor fit]

Compound: CC1(O)CC(c2nc(-c3ccc4ccc(-c5ccccc5)nc4c3)c3c(N)nccn23)C1 (stereo not given)
- z-score [1]: 0.0727
- z-score [2]: -0.825
- AC50 [3]: 20.9 µM [falling, partial curve]
- z-score [4]: 0.0683
- AC50 [5]: 23.5 µM [falling, single point]

Compound: Cc1ccc2nc(NC(=O)CSc3nc4c(c(=O)n3-c3ccccc3)SCC4)sc2c1
- z-score [1]: 0.394
- z-score [2]: 0.323
- AC50 [3]: 11.8 µM [falling, partial curve]
- z-score [4]: -0.362
- AC50 [5]: 20.9 µM [falling, partial curve]

Compound: O=C(NCC1CCCCN1)c1cc(OCC(F)(F)F)ccc1OCC(F)(F)F (stereo not given)
- z-score [1]: -0.0203
- z-score [2]: 0.163
- AC50 [3]: 1.87 µM [falling, full curve]
- z-score [4]: -0.229
- AC50 [5]: 9.35 µM [falling, partial curve]

Compound: Cn1c(NCCN(CCO)CCCc2ccc([N+](=O)[O-])cc2)cc(=O)n(C)c1=O
- z-score [1]: 0.11
- z-score [2]: 0.405
- AC50 [3]: 23.5 µM [falling, single point]
- z-score [4]: 0.313
- AC50 [5]: 18.7 µM [falling, partial curve]

Compound: CC(=O)c1c(C)c2cnc(Nc3ccc(N4CCNCC4)cn3)nc2n(C2CCCC2)c1=O
- z-score [1]: -0.522
- z-score [2]: -0.155
- AC50 [3]: 29.6 µM [falling, partial curve]
- z-score [4]: 0.192
- AC50 [5]: 18.7 µM [falling, partial curve]

Compound: Nc1nc(N)c2nc(-c3cccc(O)c3)c(-c3cccc(O)c3)nc2n1
- z-score [1]: -0.934
- z-score [2]: -0.735
- AC50 [3]: 29.6 µM [falling, partial curve, poor fit]
- z-score [4]: 0.249
- AC50 [5]: 16.6 µM [falling, partial curve]
